# Percent effect of library compounds

Sequences of proteins named here, by UniProt entry; tags and fusion partners are left off. Residues count along the entry.
UniProt P9WPC5, whole entry: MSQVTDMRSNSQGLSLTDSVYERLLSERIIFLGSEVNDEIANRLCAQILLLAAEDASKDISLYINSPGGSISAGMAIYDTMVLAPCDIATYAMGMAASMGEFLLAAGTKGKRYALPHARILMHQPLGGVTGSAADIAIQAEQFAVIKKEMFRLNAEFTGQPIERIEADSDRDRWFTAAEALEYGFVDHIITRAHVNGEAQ
UniProt P9WPC3, whole entry partner: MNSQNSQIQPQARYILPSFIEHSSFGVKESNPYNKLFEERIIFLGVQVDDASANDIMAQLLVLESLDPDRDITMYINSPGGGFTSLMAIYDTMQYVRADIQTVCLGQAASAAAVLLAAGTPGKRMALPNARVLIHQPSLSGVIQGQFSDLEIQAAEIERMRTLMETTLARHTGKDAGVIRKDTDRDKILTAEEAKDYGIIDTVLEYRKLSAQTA
UniProt I6X8D2, whole entry: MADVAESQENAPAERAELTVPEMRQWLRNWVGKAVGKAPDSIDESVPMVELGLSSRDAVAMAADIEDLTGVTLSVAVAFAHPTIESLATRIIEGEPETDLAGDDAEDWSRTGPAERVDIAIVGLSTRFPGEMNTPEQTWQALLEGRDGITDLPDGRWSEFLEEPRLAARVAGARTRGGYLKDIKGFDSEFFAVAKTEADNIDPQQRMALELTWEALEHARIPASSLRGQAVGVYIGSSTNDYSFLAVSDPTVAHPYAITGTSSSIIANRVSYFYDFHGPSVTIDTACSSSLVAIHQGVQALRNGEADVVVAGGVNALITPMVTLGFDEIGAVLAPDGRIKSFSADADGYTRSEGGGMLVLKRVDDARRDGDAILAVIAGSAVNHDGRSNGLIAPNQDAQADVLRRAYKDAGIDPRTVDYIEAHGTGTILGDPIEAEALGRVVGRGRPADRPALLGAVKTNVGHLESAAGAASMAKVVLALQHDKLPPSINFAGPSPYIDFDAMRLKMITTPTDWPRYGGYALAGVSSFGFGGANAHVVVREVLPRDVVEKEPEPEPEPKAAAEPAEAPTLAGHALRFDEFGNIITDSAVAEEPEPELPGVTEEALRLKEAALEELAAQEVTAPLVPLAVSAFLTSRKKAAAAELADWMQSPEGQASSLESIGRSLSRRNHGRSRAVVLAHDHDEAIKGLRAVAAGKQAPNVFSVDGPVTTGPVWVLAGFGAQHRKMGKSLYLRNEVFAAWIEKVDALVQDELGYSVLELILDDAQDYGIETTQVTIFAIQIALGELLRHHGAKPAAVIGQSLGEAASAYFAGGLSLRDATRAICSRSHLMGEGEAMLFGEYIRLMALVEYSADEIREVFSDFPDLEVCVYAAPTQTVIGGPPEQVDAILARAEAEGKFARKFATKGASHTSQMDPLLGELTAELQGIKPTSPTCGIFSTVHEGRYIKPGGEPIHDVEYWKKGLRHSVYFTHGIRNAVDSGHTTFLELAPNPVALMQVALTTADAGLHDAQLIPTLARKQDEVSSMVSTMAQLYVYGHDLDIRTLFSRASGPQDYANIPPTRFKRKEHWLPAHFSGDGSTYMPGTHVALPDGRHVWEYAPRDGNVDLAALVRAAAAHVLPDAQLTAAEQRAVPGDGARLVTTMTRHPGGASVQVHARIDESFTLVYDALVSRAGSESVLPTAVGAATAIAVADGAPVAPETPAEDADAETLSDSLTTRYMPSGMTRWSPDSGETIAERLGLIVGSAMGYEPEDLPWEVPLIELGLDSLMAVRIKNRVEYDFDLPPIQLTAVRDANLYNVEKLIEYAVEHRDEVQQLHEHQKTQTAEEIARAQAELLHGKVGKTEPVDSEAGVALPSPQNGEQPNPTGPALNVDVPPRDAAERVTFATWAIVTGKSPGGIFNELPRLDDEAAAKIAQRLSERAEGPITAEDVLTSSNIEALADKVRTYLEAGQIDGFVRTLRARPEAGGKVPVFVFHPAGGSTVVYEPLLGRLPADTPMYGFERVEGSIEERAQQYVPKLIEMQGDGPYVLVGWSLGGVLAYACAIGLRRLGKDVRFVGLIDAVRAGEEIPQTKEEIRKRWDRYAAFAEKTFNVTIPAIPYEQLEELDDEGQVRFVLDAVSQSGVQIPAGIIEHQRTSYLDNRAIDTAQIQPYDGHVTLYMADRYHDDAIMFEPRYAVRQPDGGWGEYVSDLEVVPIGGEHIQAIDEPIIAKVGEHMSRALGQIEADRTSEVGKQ
UniProt Q8IDJ8, 1-583: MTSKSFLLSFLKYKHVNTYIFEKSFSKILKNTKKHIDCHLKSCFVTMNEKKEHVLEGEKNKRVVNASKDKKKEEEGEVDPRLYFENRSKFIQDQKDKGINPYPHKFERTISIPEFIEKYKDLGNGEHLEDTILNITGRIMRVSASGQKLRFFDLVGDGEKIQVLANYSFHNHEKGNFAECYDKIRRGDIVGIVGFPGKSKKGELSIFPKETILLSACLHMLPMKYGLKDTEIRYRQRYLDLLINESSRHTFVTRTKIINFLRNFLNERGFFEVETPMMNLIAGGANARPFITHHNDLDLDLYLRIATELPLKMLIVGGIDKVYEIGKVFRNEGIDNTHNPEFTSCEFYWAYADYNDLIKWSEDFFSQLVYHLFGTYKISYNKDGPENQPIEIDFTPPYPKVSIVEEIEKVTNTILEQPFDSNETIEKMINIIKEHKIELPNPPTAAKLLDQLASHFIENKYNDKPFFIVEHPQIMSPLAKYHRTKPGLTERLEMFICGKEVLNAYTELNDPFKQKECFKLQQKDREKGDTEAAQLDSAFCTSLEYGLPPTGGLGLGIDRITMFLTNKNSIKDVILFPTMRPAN

From ChEMBL document CHEMBL3988442, “University of Dundee, Small-Polar-MMV Screening Library” (2021).

ClpP1P2: 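ClpP1P2, Mycobacterium tuberculosis (UniProt P9WPC5 and UniProt P9WPC3). Protease assay of ClpP1P2, read by the AMC dye that it sets free. Concentration: 50 µM. Higher reads as stronger inhibition, judged from the few compounds that gave an IC50. Most other retested compounds had strongly negative values. Size under these conditions: about 69,000 compounds, about 10 of them at 50% or above in at least one test.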
Leishmania in macrophages: 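Cell assay of Leishmania donovani living inside macrophages; the read-out is not stated. Compounds at 30 µM. The record gives no direction; compounds that gave an IC50 in retests scored well above the rest, so higher reads as stronger inhibition. About 69,000 compounds were tested under these conditions; 1.5% (about 1,000) showed 50% or more at least once.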
Pks13 thioesterase: 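Polyketide synthase Pks13, Mycobacterium tuberculosis (UniProt I6X8D2). Enzyme assay of the thioesterase domain of polyketide synthase 13; the read-out is not stated. Tested at 30 µM. The record gives no direction; the compounds picked for IC50 retests had high values, so higher reads as stronger inhibition. Of about 67,000 compounds tested this way, about 300 (0.46%) reached 50% or more in at least one test.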
PfKRS1: 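Enzyme assay of the cytosolic lysyl-tRNA synthetase in 384-well plates, read by luminescence. Target: Lysine-tRNA ligase, Plasmodium falciparum 3D7 (UniProt Q8IDJ8). Tested at 30 µM. Higher reads as stronger inhibition, judged from the few compounds that gave an IC50. Size under these conditions: about 69,000 compounds, about 49 of them at 50% or above in at least one test.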
Toxoplasma: 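Assay of Toxoplasma gondii numbers, read through their beta-galactosidase reporter with a colour substrate. Tested at 10 µM. Higher reads as fewer parasites (inferred from which compounds were picked for retests). Of about 67,000 compounds tested this way, about 260 (0.38%) reached 50% or more in at least one test.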

Results are given as percent effect. The record does not define 0% and 100%; most values in the screen are far below 50% and negative numbers occur (in some assays of this library far below -100). Compounds were drawn at random from those tested, without regard to their results. A dash means the value is not listed here; it may have been measured.

Compound,ClpP1P2,Leishmania in macrophages,Pks13 thioesterase,PfKRS1,Toxoplasma
Cc1cccc(NC(=O)c2cncc(C3CCNCC3)n2)n1,-11.91,20.58,-3.741,3.908,-
COc1cc(CNCC(O)c2ccc(F)c(F)c2)cc2c1OCO2 (configuration not stated),3.347,14.34,8.705,1.096,4.847
CN1CCC(NC(=O)c2cc(Cl)cc(Br)c2O)C1=O (configuration not stated),-5.826,-17.93,11.15,0.1553,-1.188
N#Cc1cc2c(nc1SCc1cc(O)nc(O)n1)CCCC2,4.204,3.429,17.12,4.382,18.87
COCc1nc(C(=O)NS(=O)(=O)c2c(C)c(C)cc(C)c2C)cs1,-12.29,27.83,-10.44,-0.2744,-5.947
CCc1cnc(CN(C)C2CCN(CCCNS(C)(=O)=O)C2)o1 (configuration not stated),8.172,8.531,-18.62,3.366,15.51
Fc1cccc(CN2C[C@@H]3CN(c4ncccn4)C[C@@H]3C2)c1,-8.111,-,-4.52,3.615,-
COCCNC(=O)Nc1cc2c(cc1SC)OCCO2,7.623,-0.4406,-11,3.689,-2.367
CCCc1nnc(NC(=O)NC(C)Cn2cccn2)s1 (configuration not stated),-6.628,-0.3103,-0.2045,2.503,-3.246
CN(C)C(=O)c1n[nH]c2c1CN(Cc1nccs1)CC2.O=C(O)C(F)(F)F,-,-6.498,-,-,4.099
[H][C@@]12CS(=O)(=O)C[C@]1([H])N(C(=O)c1ccc(COC)o1)CCN2C(=O)CC,-,10.14,-,-,4.083
O=C(O)C(F)(F)F.[H][C@@]12CCN(C(=O)c3cccn3C)C[C@]1([H])[C@@H](CN(C)C)OC2,-,13.18,-,-,2.499
CN(Cc1nccn1C)C(=O)c1cccc(CCC(C)(C)O)c1,-1.492,3.547,-16.37,3.648,7.777
Cc1cnn(CC2CCCN2CC(=O)Nc2cc(C(C)C)no2)c1 (configuration not stated),4.579,4.808,-21.1,0.4422,2.371
O=C(CC1CCCO1)Nc1ccn(Cc2cccc3cccnc23)n1 (configuration not stated),5.079,14.4,-17.01,9.017,-5.055
Cc1nccnc1N1CC[C@@H](NC(=O)c2cnccn2)[C@H](O)C1,-9.139,-5.477,-8.557,-0.9251,-14.66
CN(Cc1ccc2c(c1)OCO2)Cc1nc2c(cnn2C)c(=O)[nH]1,-1.374,16.55,-6.088,-4.381,1.695
[H][C@@]12CNC[C@]1([H])CN(C(=O)C1CCOCC1)C2,-,17.63,-,-,4.179
CC(NC(=O)NCc1ccccc1Cl)c1ccccn1 (configuration not stated),0.3654,-20.97,-12.5,-0.2412,5.71
CCN1CC2(CC1=O)CN(Cc1cnn(C)c1)CCN(C(C)=O)C2 (configuration not stated),5.543,-,1.772,11.72,-
OCCCN(CCn1cncn1)c1ccccc1,3.214,20.51,-2.498,0.2593,3.293
CCS(=O)(=O)N1CCC2(CCC2NC(=O)c2ccn(C)c2)CC1 (configuration not stated),0.1643,18.79,-29.77,-0.1746,8.553
CCCn1nc2c(cc1=O)CN(Cc1ncc(C(C)(C)C)o1)CC2,-2.347,17.5,-10.96,10.88,1.328
Cc1noc(C)c1-c1cccc(C2CN(CC(=O)N(C)C)CCO2)n1 (configuration not stated),-16.24,-,3.955,2.915,-
N#CC1(NC(=O)CNCCn2cccn2)CCCCC1,11.87,8.865,-11.95,6.034,-3.873
Cc1cc(C)n(CC2CN(Cc3ccccn3)CCO2)n1 (configuration not stated),-22.59,-1.185,-15.74,0.4937,14.2
COc1ccc(CNc2nc(N3CCOCC3)ns2)cc1,-10.75,8.757,-2.898,8.59,-20.34
Clc1cc(NCc2nccs2)nc2[nH]ccc12,-36.82,-47.75,15.14,-3.45,-10.42
Cc1ncc(-c2ccnc(N3CCCCC3)n2)c(=O)[nH]1,-9.848,-26.77,-3.365,5.06,-1.19
CC(C)(C)C(=O)N1CCC(n2nc(-c3ccco3)ccc2=O)CC1,-2.13,-20.91,125,1.799,-24.37
O=C(NC[C@@H]1CCCO1)c1cccnc1N1CCCC1c1ccccn1 (some centres not stated),-3.172,7.018,24.17,2.413,1.21
Cc1n[nH]c(C)c1-c1nccnc1CC1CCN(S(C)(=O)=O)C1 (configuration not stated),-2.591,15.66,-,1.008,-9.121
CC(C)Cn1cncc1-c1nc2c([nH]1)CCCNC2=O,-3.514,24.09,-12.12,3.696,-7.615
O=C(CC1CCCC1)N[C@H]1CN(Cc2c[nH]cn2)C[C@@H]1C1CC1,-12.8,-48.28,-22.88,-1.409,-8.011
COc1ccccc1OCC(=O)NS(=O)(=O)c1ccc(Br)s1,-2.028,24.93,-10.09,-0.8953,0
CN1CCN(C(=O)c2ncn3c2CN(C)S(=O)(=O)c2ccccc2-3)CC1,4.083,-,-7.089,0.7228,-
CCn1nc(C)c(NC(=O)C(C)C)c1C,4.576,4.681,-4.677,6.854,-0.2938
Cc1ccc(NC(=O)N2CCCN(C(N)=O)CC2)s1,-8.616,-2.332,-7.266,-4.959,-1.741
CC/N=c1\nc(NCC)nc2n1C(O)(Nc1cccc(C)c1C)CS2 (configuration not stated),2.36,1.355,4.815,0.9695,20.91
CN(Cc1nc(-c2cccs2)no1)Cc1nc2c(s1)CCCC2,-3.126,3.704,-18.21,6.453,-4.759
[H][C@]12CCN(C(=O)COC)CC[C@@]1([H])S(=O)(=O)N(Cc1cccc(Cl)c1)C2,-,-13.6,-,-,2.244
Cc1ccc(-c2n[nH]cc2CNCC2CCN(CC(F)(F)F)C2)o1.Cl (configuration not stated),-,-6.792,-,-,6.546
CC(Nc1ccc(CN2CCCC2=O)cc1)C(=O)N(C)CCC#N (configuration not stated),4.307,-7.694,-4.276,1.724,-6.122